Reference: paper PMC6786517
Results are given in words; binding and its absence hold for the method and conditions named. In cells and extracts the contact can be indirect. Binding calls can cover weak binding; strength is not graded here.

By UniProt entry, the sequences of proteins in these tests, tags left out. Where a name states a change or a piece, a line headed by the entry shows the natural chain unless it says otherwise.
UniProt Q8BWT5: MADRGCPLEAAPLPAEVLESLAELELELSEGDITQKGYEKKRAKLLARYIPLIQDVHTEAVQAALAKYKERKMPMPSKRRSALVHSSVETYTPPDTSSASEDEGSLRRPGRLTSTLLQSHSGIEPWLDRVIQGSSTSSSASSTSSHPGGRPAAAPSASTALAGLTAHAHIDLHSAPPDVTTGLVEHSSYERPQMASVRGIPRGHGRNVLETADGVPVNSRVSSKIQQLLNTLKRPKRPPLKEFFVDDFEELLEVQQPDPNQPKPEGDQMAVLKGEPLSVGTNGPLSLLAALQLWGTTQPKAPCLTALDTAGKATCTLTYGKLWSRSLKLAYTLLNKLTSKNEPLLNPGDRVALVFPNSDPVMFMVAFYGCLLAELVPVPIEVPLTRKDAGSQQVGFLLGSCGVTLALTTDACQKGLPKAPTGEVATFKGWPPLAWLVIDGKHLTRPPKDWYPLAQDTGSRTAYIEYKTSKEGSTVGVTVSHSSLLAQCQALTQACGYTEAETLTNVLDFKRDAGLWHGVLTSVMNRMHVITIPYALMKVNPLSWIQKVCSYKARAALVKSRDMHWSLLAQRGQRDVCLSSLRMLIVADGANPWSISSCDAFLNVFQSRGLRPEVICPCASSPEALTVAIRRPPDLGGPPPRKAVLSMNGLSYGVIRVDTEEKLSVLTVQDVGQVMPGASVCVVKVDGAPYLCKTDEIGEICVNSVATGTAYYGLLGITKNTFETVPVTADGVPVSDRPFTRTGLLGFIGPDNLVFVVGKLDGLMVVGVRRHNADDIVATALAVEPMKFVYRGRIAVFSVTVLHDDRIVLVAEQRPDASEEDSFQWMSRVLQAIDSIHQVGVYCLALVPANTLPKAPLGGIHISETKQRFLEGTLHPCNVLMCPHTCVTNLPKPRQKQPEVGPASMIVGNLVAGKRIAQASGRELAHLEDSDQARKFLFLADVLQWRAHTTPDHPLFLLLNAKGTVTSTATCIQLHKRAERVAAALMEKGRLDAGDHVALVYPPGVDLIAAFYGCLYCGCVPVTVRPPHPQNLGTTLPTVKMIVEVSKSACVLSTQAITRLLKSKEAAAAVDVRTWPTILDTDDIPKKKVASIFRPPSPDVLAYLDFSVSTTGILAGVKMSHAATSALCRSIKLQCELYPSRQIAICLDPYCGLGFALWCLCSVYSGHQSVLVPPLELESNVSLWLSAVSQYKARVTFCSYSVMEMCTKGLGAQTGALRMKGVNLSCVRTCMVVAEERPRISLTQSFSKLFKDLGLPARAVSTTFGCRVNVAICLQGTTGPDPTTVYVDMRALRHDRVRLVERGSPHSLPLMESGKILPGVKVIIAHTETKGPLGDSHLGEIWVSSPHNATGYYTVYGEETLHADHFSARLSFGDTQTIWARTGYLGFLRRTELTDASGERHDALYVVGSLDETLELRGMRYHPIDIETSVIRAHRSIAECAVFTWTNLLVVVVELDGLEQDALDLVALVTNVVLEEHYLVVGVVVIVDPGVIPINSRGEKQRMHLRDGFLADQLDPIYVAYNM
UniProt Q60598: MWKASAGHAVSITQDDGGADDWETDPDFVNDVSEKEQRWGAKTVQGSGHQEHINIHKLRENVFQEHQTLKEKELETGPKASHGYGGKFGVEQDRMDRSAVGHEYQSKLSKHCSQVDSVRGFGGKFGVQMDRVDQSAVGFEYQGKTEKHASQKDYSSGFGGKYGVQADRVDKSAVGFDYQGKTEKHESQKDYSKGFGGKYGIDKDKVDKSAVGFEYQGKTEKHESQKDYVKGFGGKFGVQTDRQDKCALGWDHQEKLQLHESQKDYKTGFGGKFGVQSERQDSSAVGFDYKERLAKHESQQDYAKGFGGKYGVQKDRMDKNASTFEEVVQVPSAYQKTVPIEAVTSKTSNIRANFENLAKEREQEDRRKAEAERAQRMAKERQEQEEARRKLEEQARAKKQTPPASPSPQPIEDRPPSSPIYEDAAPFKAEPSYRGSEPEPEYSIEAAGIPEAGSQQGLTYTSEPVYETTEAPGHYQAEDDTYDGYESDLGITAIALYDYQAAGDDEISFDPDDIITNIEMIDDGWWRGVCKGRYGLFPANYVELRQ
UniProt Q4ACU6: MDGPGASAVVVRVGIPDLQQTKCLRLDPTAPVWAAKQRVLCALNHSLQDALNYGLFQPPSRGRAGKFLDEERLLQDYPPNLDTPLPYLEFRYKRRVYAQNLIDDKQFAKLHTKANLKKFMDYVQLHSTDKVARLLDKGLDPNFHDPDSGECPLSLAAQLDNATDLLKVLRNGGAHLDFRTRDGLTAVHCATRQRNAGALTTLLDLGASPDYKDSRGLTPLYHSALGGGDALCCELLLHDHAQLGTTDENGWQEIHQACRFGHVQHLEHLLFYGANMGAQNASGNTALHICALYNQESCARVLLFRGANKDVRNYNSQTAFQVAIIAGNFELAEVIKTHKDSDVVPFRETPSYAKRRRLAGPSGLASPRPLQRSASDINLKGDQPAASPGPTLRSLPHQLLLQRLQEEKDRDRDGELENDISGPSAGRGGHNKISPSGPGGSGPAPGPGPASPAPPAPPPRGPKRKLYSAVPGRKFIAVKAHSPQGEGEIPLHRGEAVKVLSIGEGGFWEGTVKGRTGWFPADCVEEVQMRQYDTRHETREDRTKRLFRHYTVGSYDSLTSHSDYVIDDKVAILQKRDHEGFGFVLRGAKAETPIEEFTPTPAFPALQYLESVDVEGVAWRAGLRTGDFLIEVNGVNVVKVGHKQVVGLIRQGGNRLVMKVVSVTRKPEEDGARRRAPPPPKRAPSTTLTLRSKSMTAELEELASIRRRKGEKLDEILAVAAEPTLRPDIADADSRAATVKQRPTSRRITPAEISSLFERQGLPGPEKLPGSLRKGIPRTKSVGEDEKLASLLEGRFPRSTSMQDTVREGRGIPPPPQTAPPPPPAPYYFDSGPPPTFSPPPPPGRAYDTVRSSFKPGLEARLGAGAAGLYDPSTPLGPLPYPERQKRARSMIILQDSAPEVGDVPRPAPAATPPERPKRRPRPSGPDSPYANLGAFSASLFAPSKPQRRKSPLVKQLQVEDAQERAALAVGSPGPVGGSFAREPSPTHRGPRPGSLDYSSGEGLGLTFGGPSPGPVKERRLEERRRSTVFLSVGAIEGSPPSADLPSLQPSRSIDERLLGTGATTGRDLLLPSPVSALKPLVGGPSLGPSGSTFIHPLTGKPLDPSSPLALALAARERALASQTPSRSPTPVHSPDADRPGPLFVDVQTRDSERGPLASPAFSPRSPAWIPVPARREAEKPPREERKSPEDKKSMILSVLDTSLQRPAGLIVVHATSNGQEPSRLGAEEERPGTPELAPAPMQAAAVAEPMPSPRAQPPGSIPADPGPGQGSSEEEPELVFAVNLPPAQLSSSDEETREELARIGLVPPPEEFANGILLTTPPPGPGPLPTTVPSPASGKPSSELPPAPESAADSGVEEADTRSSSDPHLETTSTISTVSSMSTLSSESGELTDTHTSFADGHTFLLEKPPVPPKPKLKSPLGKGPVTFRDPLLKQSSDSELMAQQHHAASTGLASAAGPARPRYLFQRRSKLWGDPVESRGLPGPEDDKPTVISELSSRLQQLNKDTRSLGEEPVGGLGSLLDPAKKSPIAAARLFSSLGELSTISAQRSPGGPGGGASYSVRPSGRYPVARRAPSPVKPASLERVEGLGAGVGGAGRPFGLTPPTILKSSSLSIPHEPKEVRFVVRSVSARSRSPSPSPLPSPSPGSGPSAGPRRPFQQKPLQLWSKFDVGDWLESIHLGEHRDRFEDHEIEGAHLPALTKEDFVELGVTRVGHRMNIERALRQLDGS

How the values were obtained:
GST-tagged DIP2A(1-320) = GST-tagged DIP2A(1-320) (UniProt Q8BWT5); assay: pull-down; GST-tagged DIP2A1-320, wild type and PXXP mutants, tested for cortactin (Fig 4C and 4D); fusion proteins incubated with cell or brain lysates by the general methods; only the target purified
[1] = biological target: GST-tagged DIP2A(1-320) P274A/P277A (UniProt Q8BWT5); assay: as above
[2] = biological target: GST-tagged DIP2A(1-320) P298A/P301A (UniProt Q8BWT5); assay: as above
[3] = biological target: GST-tagged DIP2A(1-320) with both PXXP motifs mutated (double) (UniProt Q8BWT5); assay: as above
His-tagged DIP2A(1-320) = His-tagged DIP2A(1-320) (UniProt Q8BWT5); assay: pull-down; His-DIP2A1-320 from E. coli on Ni-NTA, incubated with murine cerebral cortex lysate overnight at 4 °C; blot; only the target purified
[4] = biological target: FLAG-tagged N terminus-truncated DIP2A(1-320) (UniProt Q8BWT5); assay: co-IP; HEK293 cells co-transfected with HA-cortactin and FLAG-tagged full-length or truncated DIP2A; IP with anti-FLAG antibody, blot for HA-cortactin

Question: With “cortactin of the binding assays of Fig 4B and 4D (construct not stated) (from UniProt Q60598 1-546)” as the substance, how does the binding (GST-tagged DIP2A(1-320)) read?
Answer: binds

Question: What about the binding [1] of the same substance?
Answer: binds

Question: And the binding [2]?
Answer: binds

Question: What about the binding [3] of the same substance?
Answer: binds weakly

Question: How did the binding (His-tagged DIP2A(1-320)) turn out when “endogenous SHANK3 (SH3 and multiple ankyrin repeat domains 3) from murine brain lysate (from UniProt Q4ACU6 1-1730)” was run?
Answer: binds

Question: How did the binding [4] turn out when “HA-tagged cortactin (from UniProt Q60598 1-546)” was run?
Answer: binds

Question: “endogenous cortactin from murine brain lysate (from UniProt Q60598 1-546)” was tested. Which binding (His-tagged DIP2A(1-320)) did it give?
Answer: binds
